Experimental data published in the supplement of paper PMC10849652.
This is one part of the list.

Amino acid sequences for entries named in this document (tags omitted). A change or cut given only in a name is not applied to a line headed by its entry.
UniProt Q5T7V8: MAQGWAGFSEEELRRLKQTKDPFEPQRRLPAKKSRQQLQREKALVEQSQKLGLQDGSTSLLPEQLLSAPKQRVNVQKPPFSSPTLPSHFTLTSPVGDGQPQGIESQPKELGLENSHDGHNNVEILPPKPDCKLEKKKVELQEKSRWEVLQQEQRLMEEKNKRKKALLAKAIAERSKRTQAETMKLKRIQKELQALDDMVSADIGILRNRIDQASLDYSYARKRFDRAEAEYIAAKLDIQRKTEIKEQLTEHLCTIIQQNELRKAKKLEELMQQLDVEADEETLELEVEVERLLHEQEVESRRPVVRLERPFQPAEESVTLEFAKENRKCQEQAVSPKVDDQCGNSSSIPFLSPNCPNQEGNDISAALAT
UniProt P43304: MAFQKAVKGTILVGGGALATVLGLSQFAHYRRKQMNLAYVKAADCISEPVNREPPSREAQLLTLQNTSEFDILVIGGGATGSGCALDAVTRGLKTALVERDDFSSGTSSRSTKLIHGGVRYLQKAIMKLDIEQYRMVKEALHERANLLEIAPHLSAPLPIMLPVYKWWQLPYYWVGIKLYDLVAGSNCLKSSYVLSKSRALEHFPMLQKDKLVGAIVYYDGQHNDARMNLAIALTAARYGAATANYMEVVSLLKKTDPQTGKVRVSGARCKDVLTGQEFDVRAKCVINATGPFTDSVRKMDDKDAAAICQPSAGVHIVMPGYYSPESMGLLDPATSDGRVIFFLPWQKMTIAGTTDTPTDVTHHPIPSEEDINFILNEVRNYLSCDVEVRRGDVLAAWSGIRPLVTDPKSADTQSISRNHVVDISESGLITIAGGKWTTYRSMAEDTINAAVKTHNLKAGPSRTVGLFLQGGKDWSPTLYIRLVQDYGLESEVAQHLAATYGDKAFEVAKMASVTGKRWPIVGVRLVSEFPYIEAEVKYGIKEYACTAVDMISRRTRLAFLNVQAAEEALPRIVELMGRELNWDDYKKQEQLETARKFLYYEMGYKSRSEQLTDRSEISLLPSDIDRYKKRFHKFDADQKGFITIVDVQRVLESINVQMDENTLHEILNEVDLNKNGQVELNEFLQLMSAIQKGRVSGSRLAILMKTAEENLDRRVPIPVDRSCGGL
UniProt P36915, whole entry, looked up: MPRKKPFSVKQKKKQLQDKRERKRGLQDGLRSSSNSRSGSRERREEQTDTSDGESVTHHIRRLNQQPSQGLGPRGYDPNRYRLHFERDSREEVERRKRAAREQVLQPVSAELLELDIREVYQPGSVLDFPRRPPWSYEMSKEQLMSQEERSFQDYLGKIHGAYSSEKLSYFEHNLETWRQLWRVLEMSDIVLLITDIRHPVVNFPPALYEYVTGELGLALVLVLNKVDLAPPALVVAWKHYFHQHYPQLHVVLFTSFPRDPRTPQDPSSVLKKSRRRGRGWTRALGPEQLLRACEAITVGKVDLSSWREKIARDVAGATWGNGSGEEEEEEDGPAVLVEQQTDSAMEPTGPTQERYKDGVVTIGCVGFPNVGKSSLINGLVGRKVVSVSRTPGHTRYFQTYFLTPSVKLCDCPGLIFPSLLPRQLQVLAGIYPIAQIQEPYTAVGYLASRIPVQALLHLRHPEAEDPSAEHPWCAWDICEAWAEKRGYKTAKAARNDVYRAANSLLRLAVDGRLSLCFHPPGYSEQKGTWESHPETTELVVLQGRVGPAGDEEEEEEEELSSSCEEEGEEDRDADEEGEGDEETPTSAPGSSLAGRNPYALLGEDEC
UniProt I6L899: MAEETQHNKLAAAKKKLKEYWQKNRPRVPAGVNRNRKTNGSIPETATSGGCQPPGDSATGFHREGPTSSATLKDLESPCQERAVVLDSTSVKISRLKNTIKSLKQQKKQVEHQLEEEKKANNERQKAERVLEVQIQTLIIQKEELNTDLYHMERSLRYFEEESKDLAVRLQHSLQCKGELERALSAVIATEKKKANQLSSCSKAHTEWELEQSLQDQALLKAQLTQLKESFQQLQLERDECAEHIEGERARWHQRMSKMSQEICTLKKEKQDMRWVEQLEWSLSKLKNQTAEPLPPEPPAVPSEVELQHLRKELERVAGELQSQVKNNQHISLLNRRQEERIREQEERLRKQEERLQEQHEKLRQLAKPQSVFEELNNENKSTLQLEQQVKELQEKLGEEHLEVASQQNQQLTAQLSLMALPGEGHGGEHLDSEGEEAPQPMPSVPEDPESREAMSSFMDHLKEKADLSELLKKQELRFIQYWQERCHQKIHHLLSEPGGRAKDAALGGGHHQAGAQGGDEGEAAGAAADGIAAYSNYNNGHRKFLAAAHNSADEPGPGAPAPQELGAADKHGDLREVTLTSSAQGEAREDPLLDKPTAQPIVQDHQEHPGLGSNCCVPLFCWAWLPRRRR
UniProt O76003: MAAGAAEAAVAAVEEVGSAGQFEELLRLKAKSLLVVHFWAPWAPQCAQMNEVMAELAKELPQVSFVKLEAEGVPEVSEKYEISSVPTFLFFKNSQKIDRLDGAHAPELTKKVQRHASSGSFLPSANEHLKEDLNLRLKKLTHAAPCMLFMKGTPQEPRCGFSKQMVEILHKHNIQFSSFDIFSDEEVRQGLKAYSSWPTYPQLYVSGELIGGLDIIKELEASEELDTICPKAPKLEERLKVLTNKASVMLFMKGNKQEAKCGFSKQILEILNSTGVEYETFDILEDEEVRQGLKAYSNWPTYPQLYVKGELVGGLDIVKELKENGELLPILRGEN
UniProt P19440: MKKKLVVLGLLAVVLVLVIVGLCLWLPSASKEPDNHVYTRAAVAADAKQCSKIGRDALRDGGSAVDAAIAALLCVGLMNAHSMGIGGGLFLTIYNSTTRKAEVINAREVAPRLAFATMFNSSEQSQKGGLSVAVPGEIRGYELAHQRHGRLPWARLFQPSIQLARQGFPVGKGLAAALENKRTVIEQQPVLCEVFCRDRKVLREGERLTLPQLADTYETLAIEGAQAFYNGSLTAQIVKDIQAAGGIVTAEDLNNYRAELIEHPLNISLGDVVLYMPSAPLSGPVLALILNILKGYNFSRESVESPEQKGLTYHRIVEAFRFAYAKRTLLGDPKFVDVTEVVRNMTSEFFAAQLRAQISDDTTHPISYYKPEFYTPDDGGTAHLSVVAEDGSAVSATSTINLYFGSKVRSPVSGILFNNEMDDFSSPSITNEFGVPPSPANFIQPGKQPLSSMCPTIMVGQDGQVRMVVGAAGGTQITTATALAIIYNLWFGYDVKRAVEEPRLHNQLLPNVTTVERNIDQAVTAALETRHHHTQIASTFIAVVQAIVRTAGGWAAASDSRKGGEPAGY
UniProt Q9BXV9: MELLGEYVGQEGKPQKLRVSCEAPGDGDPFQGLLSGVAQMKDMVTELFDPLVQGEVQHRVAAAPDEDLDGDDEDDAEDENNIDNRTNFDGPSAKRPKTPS
UniProt Q92896: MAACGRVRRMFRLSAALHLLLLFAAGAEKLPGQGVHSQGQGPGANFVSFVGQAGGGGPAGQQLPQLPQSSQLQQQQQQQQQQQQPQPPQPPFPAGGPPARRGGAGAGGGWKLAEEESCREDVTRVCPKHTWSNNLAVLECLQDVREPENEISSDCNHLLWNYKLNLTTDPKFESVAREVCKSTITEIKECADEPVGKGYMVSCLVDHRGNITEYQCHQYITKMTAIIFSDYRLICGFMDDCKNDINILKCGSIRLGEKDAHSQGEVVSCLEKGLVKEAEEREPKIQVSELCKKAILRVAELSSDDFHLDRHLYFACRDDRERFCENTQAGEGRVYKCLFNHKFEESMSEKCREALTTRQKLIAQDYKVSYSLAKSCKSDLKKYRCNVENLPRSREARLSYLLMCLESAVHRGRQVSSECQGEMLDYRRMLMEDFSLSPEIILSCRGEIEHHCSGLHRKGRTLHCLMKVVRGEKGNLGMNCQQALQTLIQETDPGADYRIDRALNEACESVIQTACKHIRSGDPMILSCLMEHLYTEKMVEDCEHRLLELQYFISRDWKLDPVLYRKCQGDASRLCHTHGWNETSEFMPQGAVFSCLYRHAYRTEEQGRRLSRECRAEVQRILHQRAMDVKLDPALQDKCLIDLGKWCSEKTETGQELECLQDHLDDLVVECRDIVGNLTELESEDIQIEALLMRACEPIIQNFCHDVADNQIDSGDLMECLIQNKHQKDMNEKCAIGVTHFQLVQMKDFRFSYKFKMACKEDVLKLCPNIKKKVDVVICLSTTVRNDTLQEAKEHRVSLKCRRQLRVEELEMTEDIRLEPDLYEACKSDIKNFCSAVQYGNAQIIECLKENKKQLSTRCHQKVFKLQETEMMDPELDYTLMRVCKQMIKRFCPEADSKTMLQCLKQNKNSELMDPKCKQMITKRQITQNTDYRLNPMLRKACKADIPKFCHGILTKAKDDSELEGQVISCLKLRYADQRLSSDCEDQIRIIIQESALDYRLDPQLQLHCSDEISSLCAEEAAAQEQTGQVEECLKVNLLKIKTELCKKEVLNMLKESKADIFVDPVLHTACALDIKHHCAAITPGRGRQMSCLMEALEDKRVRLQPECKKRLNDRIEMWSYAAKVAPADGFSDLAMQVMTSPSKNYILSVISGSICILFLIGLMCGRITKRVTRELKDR
UniProt O95249: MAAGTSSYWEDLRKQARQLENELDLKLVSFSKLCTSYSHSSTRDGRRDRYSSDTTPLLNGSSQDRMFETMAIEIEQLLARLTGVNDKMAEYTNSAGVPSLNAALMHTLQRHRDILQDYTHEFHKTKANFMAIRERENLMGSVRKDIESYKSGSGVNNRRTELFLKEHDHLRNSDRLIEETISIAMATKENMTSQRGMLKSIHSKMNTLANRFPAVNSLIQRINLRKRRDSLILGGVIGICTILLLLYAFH
UniProt Q8IXQ4: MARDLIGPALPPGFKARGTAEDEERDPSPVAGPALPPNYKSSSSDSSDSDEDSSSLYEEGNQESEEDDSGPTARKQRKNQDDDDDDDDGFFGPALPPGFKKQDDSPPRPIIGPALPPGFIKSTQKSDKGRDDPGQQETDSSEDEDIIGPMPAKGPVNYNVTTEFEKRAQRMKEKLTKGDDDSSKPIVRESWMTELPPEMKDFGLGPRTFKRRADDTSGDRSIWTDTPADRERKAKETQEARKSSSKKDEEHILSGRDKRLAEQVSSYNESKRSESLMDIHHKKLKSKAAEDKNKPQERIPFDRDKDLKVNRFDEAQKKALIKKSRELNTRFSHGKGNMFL
UniProt Q5JWF2, whole entry, looked up: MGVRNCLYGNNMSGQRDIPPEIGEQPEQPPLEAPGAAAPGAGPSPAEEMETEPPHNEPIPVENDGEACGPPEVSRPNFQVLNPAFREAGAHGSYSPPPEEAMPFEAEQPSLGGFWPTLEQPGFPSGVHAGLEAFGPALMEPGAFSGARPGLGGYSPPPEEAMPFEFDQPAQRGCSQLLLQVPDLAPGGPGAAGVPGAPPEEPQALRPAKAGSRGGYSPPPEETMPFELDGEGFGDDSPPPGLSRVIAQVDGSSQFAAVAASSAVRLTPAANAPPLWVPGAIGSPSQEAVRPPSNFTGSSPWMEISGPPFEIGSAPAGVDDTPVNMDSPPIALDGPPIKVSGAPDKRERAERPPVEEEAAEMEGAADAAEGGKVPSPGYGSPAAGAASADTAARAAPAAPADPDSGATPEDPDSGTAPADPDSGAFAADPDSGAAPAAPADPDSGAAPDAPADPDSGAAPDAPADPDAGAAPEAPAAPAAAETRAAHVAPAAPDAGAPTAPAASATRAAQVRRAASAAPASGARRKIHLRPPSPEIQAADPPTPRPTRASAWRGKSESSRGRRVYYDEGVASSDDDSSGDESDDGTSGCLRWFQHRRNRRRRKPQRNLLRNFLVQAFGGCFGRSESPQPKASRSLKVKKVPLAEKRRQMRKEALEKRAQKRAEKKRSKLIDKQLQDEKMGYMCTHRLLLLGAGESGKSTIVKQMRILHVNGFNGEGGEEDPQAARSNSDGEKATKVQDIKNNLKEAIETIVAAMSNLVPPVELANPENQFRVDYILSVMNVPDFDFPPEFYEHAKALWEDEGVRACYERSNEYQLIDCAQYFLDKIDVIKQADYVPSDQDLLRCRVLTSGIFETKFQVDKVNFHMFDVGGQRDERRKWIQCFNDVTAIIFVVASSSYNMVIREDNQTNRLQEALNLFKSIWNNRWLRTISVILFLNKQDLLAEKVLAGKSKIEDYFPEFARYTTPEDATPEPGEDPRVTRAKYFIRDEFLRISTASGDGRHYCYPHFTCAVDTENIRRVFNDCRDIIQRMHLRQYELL
UniProt Q9Y3E0: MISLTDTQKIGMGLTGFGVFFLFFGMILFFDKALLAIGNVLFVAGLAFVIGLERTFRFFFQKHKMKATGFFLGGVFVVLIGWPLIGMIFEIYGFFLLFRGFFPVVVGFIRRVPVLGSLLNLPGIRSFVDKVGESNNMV
UniProt Q9H4A6: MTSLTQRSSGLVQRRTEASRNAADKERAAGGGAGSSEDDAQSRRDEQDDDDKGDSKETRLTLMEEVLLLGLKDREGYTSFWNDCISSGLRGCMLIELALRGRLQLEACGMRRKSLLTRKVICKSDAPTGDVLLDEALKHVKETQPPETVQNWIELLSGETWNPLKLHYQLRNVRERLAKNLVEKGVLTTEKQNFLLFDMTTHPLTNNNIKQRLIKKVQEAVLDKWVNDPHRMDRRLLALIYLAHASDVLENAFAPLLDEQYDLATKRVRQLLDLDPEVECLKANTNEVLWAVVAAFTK

What was measured:
Assay in all cases: log2 fold change, soluble protein after heating vs DMSO (PISA); higher = thermal stabilisation; K562 lysate, 10 uM; active = over 0.2 and 3.5 SD of the protein, either way, in both replicates (recomputed)
[1] = compound: C=CC(=O)N1CCC[C@@H](n2nc(-c3ccc(Oc4ccccc4)cc3)c3c(N)ncnc32)C1 [ibrutinib]
Summary of the method: (§1)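 Following dounce homogenisation of K562 pellets in PBS pH 7.4 with 1 mM MgCl2, crude extract at 1 mg/mL protein was incubated for 30 min with 10 μM compound. Aliquots were then heated for 3 min over 48°C-58°C and pooled, NP-40 was added to 0.5% at 4°C, and soluble protein was recovered as the supernatant at 21,000xg for 90 min. Channel-sum-equalised TMTpro 16plex LC-MS/MS quantified this protein. Each value, from duplicates, is a log-two fold change in thermal stability relative to solvent controls.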

[2] = compound: CC(=O)c1cnc2ccc(-c3cc(Cl)c(O)c(Cl)c3)nc2c1N[C@H]1CC[C@H](CN(C)C)CC1
Summary of the method: as §1

[3] = compound: CC(C)(C)Cn1c(N)nc2ccc(-c3[nH]c(C(C)(C)C)nc3-c3ccc(F)cc3)nc21 [ralimetinib]
Summary of the method: as §1

[4] = compound: CC(C)(O)CC(=O)NCCn1ccc2ncnc(Nc3ccc(Oc4cccc(C(F)(F)F)c4)c(Cl)c3)c21
Summary of the method: as §1

[5] = compound: CC(C)C1=C2N=C(C=C(N2N=C1)NCC3=CC=CC=C3)NCCCCCCN
Summary of the method: as §1

[6] = compound: CC1=C(C(CC(=O)N1)C2=CC=C(C=C2)C(F)(F)F)C(=O)NC3=C(C=C4C(=C3)C=NN4)F
Summary of the method: as §1

[7] = compound: CC1=C(C2=C(C=C1)C(=O)C3=CC=CC=C3N2CCCN)C
Summary of the method: as §1

[8] = compound: CC1=C(C=C(C=C1)NC(=O)C2=CC(=CC=C2)C(C)(C)C#N)NC3=CC4=C(C=C3)N=CN(C4=O)C
Summary of the method: as §1

[9] = compound: CC1=C(C=C(C=C1)NC(=O)C2=CC(=CC=C2)N(C)C)NC(=O)C3=CC=C(C=C3)O
Summary of the method: as §1

[10] = compound: CC1=CC=C(C=C1)SC2=C3C=C(SC3=CN=C2)C(=O)N
Summary of the method: as §1

Measured: log2 fold change

GPD1 (UniProt P21695)
inactive: [1] 0.015 | [2] -0.027 | [3] 0.006 | [4] -0.314 | [5] 0.059 | [6] 0.016 | [7] -0.096 | [8] 0.242 | [9] -0.136 | [10] -0.143

GORAB (UniProt Q5T7V8)
inactive: [1] 0.051 | [2] 0.049 | [3] 0.008 | [4] -0.022 | [5] 0.043 | [6] 0.015 | [7] 0.035 | [8] -0.051 | [9] 0.02 | [10] 0.026

GPD2 (UniProt P43304)
inactive: [1] -0.001 | [2] -0.228 | [3] 0.021 | [4] -0.023 | [5] -0.009 | [6] 0.013 | [7] -0.019 | [8] 0.022 | [9] -0.014 | [10] -0.047

GNL1 (UniProt P36915)
inactive: [1] 0.01 | [2] -0.008 | [3] -0.012 | [4] -0.024 | [5] 0.01 | [6] -0.006 | [7] 0.018 | [8] -0.016 | [9] 0.013 | [10] -0.004

GOLGA8R (UniProt I6L899)
inactive: [1] -0.049 | [2] -0.159 | [3] -0.171 | [4] -0.134 | [5] 0.049 | [6] -0.048 | [7] -0.253 | [8] 0.284 | [9] 0.009 | [10] 0.023

Reprinted from the results shown (two entries):
GORAB (UniProt Q5T7V8)
inactive: [1] 0.051 | [2] 0.049 | [3] 0.008 | [4] -0.022 | [5] 0.043 | [6] 0.015 | [7] 0.035 | [8] -0.051 | [9] 0.02 | [10] 0.026

GPD2 (UniProt P43304)
inactive: [1] -0.001 | [2] -0.228 | [3] 0.021 | [4] -0.023 | [5] -0.009 | [6] 0.013 | [7] -0.019 | [8] 0.022 | [9] -0.014 | [10] -0.047

Going on with the list:

GLRX3 (UniProt O76003)
inactive: [1] 0.009 | [2] -0.005 | [3] 0.004 | [4] -0.012 | [5] 0.041 | [6] 0.008 | [7] 0.004 | [8] -0.009 | [9] -0.032 | [10] 0.002

GGT1 (UniProt P19440)
inactive: [1] 0.019 | [2] -0.011 | [3] 0.048 | [4] 0.007 | [5] -0.044 | [6] -0.005 | [7] 0.004 | [8] -0.024 | [9] 0.002 | [10] 0.041

GPN3 isoform 2 (UniProt Q9UHW5)
inactive: [1] 0.016 | [2] -0.021 | [3] -0.032 | [4] -0.01 | [5] 0 | [6] 0.045 | [7] -0.063 | [8] 0.001 | [9] 0.003 | [10] -0.049

GMIP (UniProt Q9P107)
inactive: [1] 0.182 | [2] 0.027 | [3] 0.023 | [4] -0.11 | [5] -0.017 | [6] 0.029 | [7] 0.03 | [8] 0.019 | [9] -0.068 | [10] 0.045

GON7 (UniProt Q9BXV9)
inactive: [1] 0.073 | [2] -0.132 | [3] -0.052 | [4] -0.052 | [5] -0.022 | [6] 0.008 | [7] 0.017 | [8] 0.071 | [9] 0.042 | [10] 0.062

GLA (UniProt P06280)
inactive: [1] 0.002 | [2] -0.017 | [3] 0.004 | [4] -0.031 | [5] -0.017 | [6] 0.018 | [7] -0.016 | [8] -0.017 | [9] -0.011 | [10] -0.014

GLCCI1 (UniProt Q86VQ1)
inactive: [1] 0.061 | [2] 0 | [3] 0.029 | [4] 0.008 | [5] 0.044 | [6] -0.005 | [7] -0.012 | [8] 0.083 | [9] -0.037 | [10] -0.057

GLG1 isoform 2 (UniProt Q92896)
inactive: [1] -0.001 | [2] 0.009 | [3] -0.003 | [4] -0.037 | [5] -0.016 | [6] 0.024 | [7] -0.011 | [8] -0.024 | [9] 0.009 | [10] 0.013

GNPDA1 (UniProt P46926)
inactive: [1] 0.024 | [2] 0 | [3] 0.026 | [4] -0.033 | [5] -0.03 | [6] 0.007 | [7] 0.011 | [8] -0.023 | [9] -0.007 | [10] -0.016

GPR107 isoform 2 (UniProt Q5VW38)
inactive: [1] 0.05 | [2] -0.017 | [3] -0.072 | [4] -0.12 | [5] -0.005 | [6] -0.003 | [7] -0.089 | [8] 0 | [9] 0.036 | [10] -0.017

GMFB (UniProt P60983)
inactive: [1] 0.013 | [2] 0.029 | [3] -0.014 | [4] 0.03 | [5] -0.008 | [6] -0.001 | [7] 0.011 | [8] 0.003 | [9] -0.044 | [10] 0.022

GOSR1 (UniProt O95249)
inactive: [1] 0.009 | [2] 0.005 | [3] 0.016 | [4] -0.013 | [5] -0.024 | [6] 0.052 | [7] 0.016 | [8] 0.036 | [9] -0.008 | [10] -0.023

GPRIN1 (UniProt Q7Z2K8)
inactive: [1] 0.041 | [2] -0.031 | [3] 0.009 | [4] -0.063 | [5] 0 | [6] 0.007 | [7] -0.023 | [8] 0.018 | [9] 0.008 | [10] -0.026

GLE1 (UniProt Q53GS7)
inactive: [1] -0.039 | [2] -0.011 | [3] -0.181 | [4] -0.013 | [5] -0.022 | [6] 0.006 | [7] -0.193 | [8] -0.018 | [9] 0.011 | [10] 0.129

GINS3 (UniProt Q9BRX5)
inactive: [1] 0.088 | [2] 0.024 | [3] 0.039 | [4] 0.024 | [5] -0.028 | [6] 0.013 | [7] 0.061 | [8] -0.007 | [9] 0.022 | [10] 0.004

GORASP2 isoform 3 (UniProt Q9H8Y8)
inactive: [1] 0.058 | [2] 0.019 | [3] 0.034 | [4] -0.055 | [5] -0.003 | [6] 0.021 | [7] 0.009 | [8] -0.017 | [9] -0.011 | [10] 0.022

GPALPP1 (UniProt Q8IXQ4)
inactive: [1] 0.079 | [2] -0.03 | [3] -0.004 | [4] -0.005 | [5] 0.008 | [6] 0.041 | [7] -0.047 | [8] 0.029 | [9] 0.008 | [10] -0.018

GOLGA6B (UniProt A6NDN3)
inactive: [1] -0.034 | [2] 0.003 | [3] -0.047 | [4] -0.187 | [5] -0.057 | [6] -0.127 | [7] -0.114 | [8] 0.045 | [9] 0.066 | [10] 0

GNAS (UniProt Q5JWF2)
inactive: [1] -0.001 | [2] 0.012 | [3] -0.012 | [4] 0.021 | [5] -0.037 | [6] 0.013 | [7] 0.013 | [8] -0.015 | [9] -0.01 | [10] 0.008

GOLT1B (UniProt Q9Y3E0)
inactive: [1] -0.063 | [2] 0.017 | [3] 0.014 | [4] -0.008 | [5] 0.015 | [6] 0.042 | [7] -0.024 | [8] -0.039 | [9] -0.02 | [10] -0.082

GOLPH3 (UniProt Q9H4A6)
inactive: [1] 0.024 | [2] 0 | [3] 0.034 | [4] -0.019 | [5] 0.043 | [6] -0.023 | [7] 0.001 | [8] -0.02 | [9] -0.023 | [10] 0.004

GPATCH4 isoform 3 (UniProt Q5T3I0)
inactive: [1] -0.024 | [2] 0.036 | [3] 0.038 | [4] 0.099 | [5] 0.021 | [6] 0.039 | [7] -0.007 | [8] 0.166 | [9] -0.004 | [10] 0.072
